The results in this text go back to article PMC5996148.

Some of the results follow. For some assays here: The source does not settle which construct or isoform was used.

Some test systems named below: ACTN4 (human); ACTR6 (human); ACVRL1 (human); ACY1 (human); ACY3 (human); ADAM33 (human); ADD1 (human); ADH5 (human); ADI1 (human); ADPRHL1 (human); ADRM1 (human); AFAP1L1 (human); AFG3L1 (human); AGR2 (human); AGT (human); AGXT2L2 (human); AHCY (human); AHNAK (human); AHNAK2 (human).
What all share (assay): protein microarray (ProtoArray v5.0), streptavidin-Alexa Fluor 647
Holding throughout (details): 3'-biotin; 20 mM Tris (pH 7.5), 5 mM MgCl2, 100 mM KCl, 0.1% Tween-20, A/T-rich and random oligonucleotide blockers; temperature not stated; high values mean tight binding

The next assay has as its target ADRB2 (UniProt P07550).

Regarding “GGGAGGCTGAGGCAGG [G4-1 biotinylated (PQS2)]”, the binding signal with ACTN4 (human) was -0.316 z-score; with ACTR6 (human), -0.285 z-score; in the assay with ACVRL1 (human), -0.325 z-score; in the assay on ACY1 (human), -0.353 z-score; in the assay with ACY3 (human), -0.349 z-score; in the assay on ADAM33 (human) it was -0.267 z-score. Besides, the binding signal with ADD1 (human) is -0.343 z-score; in the assay on ADH5 (human) it was -0.33 z-score; in the assay on ADI1 (human), -0.368 z-score; with ADPRHL1 (human), -0.332 z-score; with ADRB2 it was -0.333 z-score; in the assay on ADRM1 (human), -0.353 z-score. In addition, the binding signal with AFAP1L1 (human) was -0.336 z-score; with AFG3L1 (human) it was -0.348 z-score; in the assay with AGR2 (human), -0.264 z-score; in the assay with AGT (human), -0.298 z-score; in the assay with AGXT2L2 (human) it was -0.328 z-score; with AHCY (human), -0.339 z-score. Besides, the binding signal is -0.301 z-score with AHNAK (human) and -0.334 z-score with AHNAK2 (human).
